# Source: PubChem BioAssay AID1487 (National Center for Advancing Translational Sciences (NCATS), 2009)
# This is one part of the list. These are further read-outs of the screen, such as a control signal, another cell line or another target. No call is given for them. Compounds called inactive in the main read-out are mostly missing here. Words in brackets tell the shape of the fitted curve; partial curves, single points and poor fits give uncertain potencies.
# Experiment: qHTS Assay for Modulators of Lamin A Splicing
# Details: HeLa LMNA splicing GFP/RFP minigene ratio, 48 h
# Method in brief: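 Read-out is the ratio of GFP to DsRed2 object intensity, acquired by 488 nm laser-scanning cytometry on HeLa lamin A-EGFP minigene reporter cells. Compound incubation 48 hrs at 37 °C in Opti-MEM with 2% FBS; DMSO 0.5% final.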
# [1] = measured here: RFP viability control channel
# [2] = measured here: GFP splicing reporter channel
SMILES,AC50 [1],AC50 [2]
COc1ccc(-c2cc(C(F)(F)F)n3ncc(C(=O)Nc4c(C)n(C)n(-c5ccccc5)c4=O)c3n2)cc1,"0.794 µM [falling, full curve, poor fit]",–
Cc1cccc(Nc2ccccc2C(=O)O)c1C,–,"1.26 µM [falling, full curve, poor fit]"
Cc1ccc(NC(=O)c2nn(C34CC5CC(CC(C5)C3)C4)cc2[N+](=O)[O-])cc1,"11.2 µM [rising, partial curve]","7.08 µM [rising, partial curve, poor fit]"
COc1ccccc1NCc1cccn1-c1nnc(N2CCCCCC2)s1,–,"0.562 µM [falling, partial curve, poor fit]"
O=C(/C=C\Nc1ccc2c(c1)OCO2)c1cccs1,"0.0891 µM [rising, full curve, poor fit]","0.0447 µM [rising, full curve, poor fit]"
CCOc1cc(N)c(Cl)cc1C(=O)NCC1CN(Cc2ccc(F)cc2)CCO1 (stereo not given),"0.224 µM [rising, full curve, poor fit]",–
COc1cccc(CN2CCN(Cc3cccc4nonc34)CC2CCO)c1 (stereo not given),–,"0.0112 µM [rising, full curve, poor fit]"
CCOc1ccc(S(=O)(=O)Nc2ccc3oc(C)c(C(=O)OC(C)C)c3c2)cc1,–,"35.5 µM [falling, single point]"
CCOc1cc(-c2conc2N)cc(OCC)c1OCC,"11.2 µM [rising, partial curve]",–
CNC(=O)NC(=O)CSc1nc(-c2cccs2)c(C#N)c(=O)[nH]1,–,"25.1 µM [falling, partial curve, poor fit]"
CN(CCc1ccccn1)C(=O)CCC1CCCN(C(=O)c2ccccn2)C1 (stereo not given),"0.178 µM [falling, partial curve]",–
C=C1C(=O)O[C@@H]2[C@H]3O[C@]3(C)CCC=C(C)CC[C@@H]12,"7.08 µM [falling, partial curve]","7.08 µM [falling, full curve]"
COc1cccc(N2CCN(Cc3nc(N)nc(N4CCCc5ccccc54)n3)CC2)c1,–,"10 µM [falling, partial curve, poor fit]"
O=C1CCCCC1C(Nc1ccc(Br)cc1)c1ccccc1 (stereo not given),"15.8 µM [rising, single point]",–
NC(=O)[C@@H]1CCCNc2c(F)cc([N+](=O)[O-])cc2C(=O)N[C@@H](CO)C(=O)NCC(=O)N1,–,"0.0891 µM [falling, full curve, poor fit]"
O=C(Nc1ccccc1)Nc1nc2ccccc2s1,–,"35.5 µM [falling, single point]"
NC(=O)N[C@H]1NC(=O)NC1=O,–,"0.00316 µM [falling, full curve, poor fit]"

SMILES,AC50 [1],AC50 [2]
CN(Cc1ccccc1)C(=O)COC(=O)c1cc(-c2ccc(Cl)s2)nc2ccccc12,"35.5 µM [rising, single point]",–
CCc1ccc(C(=O)COC(=O)c2n[nH]c3ccccc23)cc1,"35.5 µM [falling, partial curve]","35.5 µM [falling, partial curve, poor fit]"
CCN(CC)c1ccc(/C=N/NC(=O)Nc2ccccc2)cc1,"35.5 µM [falling, partial curve]","14.1 µM [falling, single point]"
Cn1nnnc1SCC(=O)NNC(=O)c1ccc(Cl)cc1,"0.501 µM [rising, partial curve]",–
COc1ccc(-c2cn3nc(N4CCCC(C(=O)Nc5cccc(Cl)c5C)C4)sc3n2)cc1 (stereo not given),"35.5 µM [falling, partial curve, poor fit]","0.0224 µM [falling, full curve, poor fit]"
C[C@@H]1NC(=O)[C@H](CCCN=C(N)N)NC(=O)c2cc([N+](=O)[O-])cc(I)c2NCCC[C@@H](C(N)=O)NC1=O,–,"0.00282 µM [falling, full curve, poor fit]"
CC(=O)c1cccc(NS(=O)(=O)c2ccc3c(c2)oc(=O)n3C)c1,"15.8 µM [rising, partial curve]","12.6 µM [rising, partial curve, poor fit]"
COc1ccc(C(C(=O)NCC2CCCO2)N(C(=O)CNC(=O)c2cccs2)c2ccccc2C)cc1OC (stereo not given),"6.31 µM [falling, partial curve, poor fit]","0.0112 µM [falling, full curve, poor fit]"
O=C(CNc1cccc([N+](=O)[O-])c1)N/N=C/c1ccc([N+](=O)[O-])o1,"0.316 µM [rising, partial curve, poor fit]",–
COc1cccc(-n2cc(C(=O)OCc3ccc(F)c(F)c3)c3ccccc3c2=O)c1,"1.12 µM [falling, full curve, poor fit]","1 µM [falling, full curve, poor fit]"
O=C(CSc1nnc(-c2c[nH]c3ccccc23)o1)N1c2ccccc2CCc2ccccc21,"6.31 µM [rising, full curve]",–
Cc1ccc(S(=O)(=O)N2CCN(Cc3nc4ccc(C)cc4o3)CC2)cc1,"6.31 µM [rising, partial curve, poor fit]","4.47 µM [rising, single point]"
CCn1c(SCC(=O)N/N=C/C=C/c2ccccc2[N+](=O)[O-])nnc1-c1ccc(Cl)cc1,"35.5 µM [rising, single point]",–
O=C(CS(=O)(=O)c1cccc2nsnc12)N1CCN(c2cccc(C(F)(F)F)c2)CC1,"0.0708 µM [falling, full curve, poor fit]","0.398 µM [falling, full curve, poor fit]"
NC(=O)N/N=C/c1ccc(-c2cccc(C(F)(F)F)c2)o1,–,"0.0126 µM [rising, full curve]"
Cc1cc(-c2ccccc2)nc(Oc2ccc(C(C)(C)C)cc2)c1S(C)(=O)=O,"28.2 µM [rising, single point]",–
O=[N+]([O-])c1cccc(/C=N/n2c(-c3cccnc3)n[nH]c2=S)c1,–,"25.1 µM [rising, single point]"

# Quoted at random: two compounds from above
SMILES,AC50 [1],AC50 [2]
COc1ccc(C(C(=O)NCC2CCCO2)N(C(=O)CNC(=O)c2cccs2)c2ccccc2C)cc1OC (stereo not given),"6.31 µM [falling, partial curve, poor fit]","0.0112 µM [falling, full curve, poor fit]"
O=[N+]([O-])c1cccc(/C=N/n2c(-c3cccnc3)n[nH]c2=S)c1,–,"25.1 µM [rising, single point]"
